These results are taken from publication PMC13212363.

Amino acid sequences for entries named in this document (tags omitted). A change or cut given only in a name is not applied to a line headed by its entry.
UniProt P67775: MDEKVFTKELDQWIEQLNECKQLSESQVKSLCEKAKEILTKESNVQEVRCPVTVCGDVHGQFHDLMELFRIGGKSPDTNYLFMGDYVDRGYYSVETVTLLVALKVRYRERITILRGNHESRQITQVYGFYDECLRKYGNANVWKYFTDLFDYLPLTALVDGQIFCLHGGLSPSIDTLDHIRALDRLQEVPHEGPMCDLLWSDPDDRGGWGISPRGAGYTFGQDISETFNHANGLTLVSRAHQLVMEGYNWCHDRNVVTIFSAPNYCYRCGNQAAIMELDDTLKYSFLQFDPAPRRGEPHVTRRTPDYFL

This experiment concerns the target T1, NSF-tagged PPP2R2B (UniProt Q00005).
T1 sequence: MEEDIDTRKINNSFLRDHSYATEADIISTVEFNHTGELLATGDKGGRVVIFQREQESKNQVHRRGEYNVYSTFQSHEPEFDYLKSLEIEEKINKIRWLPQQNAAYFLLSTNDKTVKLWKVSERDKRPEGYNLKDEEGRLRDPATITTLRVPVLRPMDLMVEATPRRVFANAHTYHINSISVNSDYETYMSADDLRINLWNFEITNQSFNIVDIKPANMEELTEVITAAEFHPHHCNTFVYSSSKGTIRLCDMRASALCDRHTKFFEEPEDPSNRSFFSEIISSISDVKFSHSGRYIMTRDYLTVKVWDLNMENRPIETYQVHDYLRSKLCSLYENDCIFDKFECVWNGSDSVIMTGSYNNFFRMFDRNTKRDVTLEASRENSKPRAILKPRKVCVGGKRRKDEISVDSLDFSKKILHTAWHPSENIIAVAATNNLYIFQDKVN
Briefly: pull-down; NSF-tagged B subunit co-expressed with myc-tagged PPP2CA constructs in HEK293; lysate (50 mM Tris-HCl 7.5, 150 mM NaCl, 1 mM EDTA, 2.5 mM EGTA, 1% NP-40) on streptavidin beads for 4 h, washed three times; western blot. Background: Immunoblotting shows a protein as a band on a membrane.

Results are given in words; binding and its absence hold for the method and conditions named. Binding seen in cells or lysates may run through a third protein. Some entries that bind do so weakly or less than the wild type. Where a sequence is shown, tags or fusion partners need not be part of it.

“myc-tagged T304A-PPP2CA (from UniProt P67775 1-309) (enzyme)”: the binding result was “binds”. Regarding “myc-tagged WT-PPP2CA (from UniProt P67775 1-309) (enzyme)”, the binding entry is “binds”.
